# PubChem BioAssay AID504804 – Drosophila RNAi Screening Center | 2011
# Assay: 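Fly genes whose loss lessens doxorubicin-driven cell death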 (primary screen)
# System: Drosophila Kc cells
# Reagent: long dsRNA against Drosophila genes, 0.5 µg dsRNA per well
# Timing: 96 h (48 h knock-down, then 48 h drug)
# Conditions: doxorubicin 5 µg/ml for 48 h, added 48 h after dsRNA
# Measurement: 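Luminescent ATP counts per replicate, not normalised, reflecting viable cells after 48 h dsRNA knock-down followed by 48 h of 5 µg/ml doxorubicin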
# Scale: raw ATP luminescence: higher = more viable cells, protection from doxorubicin
# Hit rule: 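Active when both duplicate wells lie at least 2 SD above the plate mean and protection is confirmed by rescreening and independent dsRNAs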
# The screen tested about 19,000 reagents; this is a random part of those that have a named target and a result. Over the whole deposit, 47 (0.25%) were called active. 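Signals are raw, not normalised; exact z-scores behind calls not deposited; actives needed confirmation, so some wells reaching 2 SD are inactive.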 Names joined by + are all predicted targets of the reagent.
gene,amplicon,"raw ATP luminescence, replicate 1","raw ATP luminescence, replicate 2",outcome
Dgk,DRSC05064,39317,45230,inactive
Dgk,DRSC05065,85493,84967,inactive
Dgk,DRSC06171,42860,94233,inactive
Dgk,DRSC06782,49013,1.02e5,inactive
CG30378,DRSC05071,74650,93313,inactive
Usf,DRSC18129,33890,36290,inactive
CG11134,DRSC19384,1.59e5,2.09e5,inactive
Lgr4,DRSC18969,2.34e5,1.96e5,inactive
Lgr4,DRSC18970,2.36e5,3.48e5,inactive
Lgr4,DRSC19884,3.88e5,2.84e5,inactive
Shab,DRSC08013,1.54e5,1.29e5,inactive
Shab,DRSC08699,98567,61490,inactive
CG14126 (retired record),DRSC10130,89653,66893,inactive
Exd2,DRSC16105,59727,51080,inactive
CG9095,DRSC20150,3.09e5,2.76e5,inactive
Pgant8,DRSC10801,64070,57717,inactive
CG13358,DRSC18534,49900,52510,inactive
Ephrin,DRSC17165,60780,66200,inactive
CG7841,DRSC10922,45833,33410,inactive
Cdc45,DRSC18164,59830,25180,inactive

In a second layout: 5 of the entries above.
Exd2 [DRSC16105]
- raw ATP luminescence, replicate 1: 59727
- raw ATP luminescence, replicate 2: 51080
- outcome: inactive

CG9095 [DRSC20150]
- raw ATP luminescence, replicate 1: 3.09e5
- raw ATP luminescence, replicate 2: 2.76e5
- outcome: inactive

Pgant8 [DRSC10801]
- raw ATP luminescence, replicate 1: 64070
- raw ATP luminescence, replicate 2: 57717
- outcome: inactive

CG13358 [DRSC18534]
- raw ATP luminescence, replicate 1: 49900
- raw ATP luminescence, replicate 2: 52510
- outcome: inactive

Ephrin [DRSC17165]
- raw ATP luminescence, replicate 1: 60780
- raw ATP luminescence, replicate 2: 66200
- outcome: inactive

The list goes on.
gene,amplicon,"raw ATP luminescence, replicate 1","raw ATP luminescence, replicate 2",outcome
S-Lap4,DRSC10957,80680,65400,inactive
CG9928,DRSC03274,70260,82097,inactive
fzy,DRSC03534,41537,46230,inactive
Atg10,DRSC06172,30457,93263,inactive
Gug,DRSC11179,92523,92157,inactive
CG42685,DRSC01971,77033,1.14e5,inactive
Gr36c,DRSC02437,59523,66847,inactive
Ir76a,DRSC10987,23230,19033,inactive
Alp4,DRSC14116,52260,41280,inactive
CG34032 (retired record),DRSC09225,70507,93143,inactive
CG34251,DRSC09498,80863,70937,inactive
CG34251,DRSC09500,75590,75597,inactive
slp2,DRSC00836,24087,26400,inactive
Hsp70Aa + Hsp70Ab,DRSC21246,3.14e5,3.09e5,inactive
